Results published in paper PMC11842806, “Molecular basis of foreign DNA recognition by BREX anti-phage immunity system” (Nature Communications, 2025).
Changes are numbered by the printed parent chain. A weaker result is weaker than the reference pair of the same experiment. Tags and fusion partners may be left off the protein sequences shown. For some of these results: For at least one entry, the source does not settle the construct or the ends of the probe. For some of these results: At least one verdict was read from the data and is not stated in words by the source.

Tests used:
Assay in all cases: EMSA
[1] = molecular target: T1, BrxX (PglX) (Escherichia coli HS) (UniProt P0DUF9); conditions: strict specificity for A at position 4; EMSA: 20 nM Cy5-DNA, 0.5x TBE pH 8.0, 35 mM NaCl, 5% glycerol, +/-0.5 mM SAM or SAH, 30 min, room temperature; recombinant protein; residues 1-1205; protein details: N-His6; label: 5'-Cy5 on strand 1
T1 sequence (looked up): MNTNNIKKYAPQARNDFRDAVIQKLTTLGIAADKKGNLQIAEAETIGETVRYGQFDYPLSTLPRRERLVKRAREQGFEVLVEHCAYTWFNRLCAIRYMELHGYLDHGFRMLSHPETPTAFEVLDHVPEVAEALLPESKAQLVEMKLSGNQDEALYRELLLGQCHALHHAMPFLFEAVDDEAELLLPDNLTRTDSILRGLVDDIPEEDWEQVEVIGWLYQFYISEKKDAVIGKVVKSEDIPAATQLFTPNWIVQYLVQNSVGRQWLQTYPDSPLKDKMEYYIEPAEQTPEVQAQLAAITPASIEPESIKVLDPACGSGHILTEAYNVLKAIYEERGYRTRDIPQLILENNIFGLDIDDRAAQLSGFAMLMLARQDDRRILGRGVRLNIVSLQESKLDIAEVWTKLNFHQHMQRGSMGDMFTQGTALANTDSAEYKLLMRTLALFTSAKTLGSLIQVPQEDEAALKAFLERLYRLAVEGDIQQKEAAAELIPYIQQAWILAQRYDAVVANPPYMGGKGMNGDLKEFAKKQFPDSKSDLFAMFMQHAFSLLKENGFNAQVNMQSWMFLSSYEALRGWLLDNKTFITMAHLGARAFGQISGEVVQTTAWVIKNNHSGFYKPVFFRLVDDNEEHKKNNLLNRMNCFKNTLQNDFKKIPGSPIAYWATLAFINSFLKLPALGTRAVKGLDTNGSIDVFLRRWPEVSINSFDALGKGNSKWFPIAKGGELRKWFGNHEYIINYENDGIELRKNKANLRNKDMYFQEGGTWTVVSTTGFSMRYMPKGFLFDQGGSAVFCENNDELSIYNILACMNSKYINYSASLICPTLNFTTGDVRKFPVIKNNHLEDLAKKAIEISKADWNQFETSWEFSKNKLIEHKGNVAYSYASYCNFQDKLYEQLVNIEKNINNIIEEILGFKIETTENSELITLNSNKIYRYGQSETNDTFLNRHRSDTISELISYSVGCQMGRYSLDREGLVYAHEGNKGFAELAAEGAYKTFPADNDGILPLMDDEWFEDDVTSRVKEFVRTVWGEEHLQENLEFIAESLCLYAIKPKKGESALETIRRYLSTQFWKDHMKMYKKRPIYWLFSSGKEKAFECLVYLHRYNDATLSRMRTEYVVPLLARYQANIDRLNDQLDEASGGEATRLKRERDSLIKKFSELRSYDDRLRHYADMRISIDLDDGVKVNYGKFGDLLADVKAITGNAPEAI

[2] = molecular target: T2, BrxX K515E/K522E/K526E/K533E (MTD variant) (Escherichia coli HS) (UniProt P0DUF9); conditions: site specificity lost; EMSA: 20 nM Cy5-DNA, 0.5x TBE pH 8.0, 35 mM NaCl, 5% glycerol, +/-0.5 mM SAM or SAH, 30 min, room temperature; recombinant protein; residues 1-1205; protein details: N-His6; label: 5'-Cy5 on strand 1
T2 sequence (looked up): T1 sequence (looked up) with K515E, K522E, K526E, K533E

[3] = molecular target: T3, BrxX Y511A (Escherichia coli HS) (UniProt P0DUF9); conditions: with and without 0.5 mM SAM, binding disrupted; EMSA: 20 nM Cy5-DNA, 0.5x TBE pH 8.0, 35 mM NaCl, 5% glycerol, +/-0.5 mM SAM or SAH, 30 min, room temperature; recombinant protein; residues 1-1205; protein details: N-His6; label: 5'-Cy5 on strand 1
T3 sequence (looked up): T1 sequence (looked up) with Y511A

“TCAGTAGTCAAGTCAGTGGTGAGGTCAGGACAGGAGTCAG (double strand) [40 bp BREX 4G]”: binds more weakly [1].
“TCAGTAGTCAAGTCAGTTAGGGAGTCAGGACAGGAGTCAG (double strand) [40 bp scrambled]”: binds more weakly [2].
“AGTCAGTAGTGAGGTCAGGAATGAGTCAGTCTCACTGTCAGGA (double strand) [43 bp scrambled]”: binds more weakly [3].
“TCAGTAGTCAAGTCAGTGGTCAGGTCAGGACAGGAGTCAG (double strand) [40 bp BREX 4C]”: binds more weakly [1].
“AGTCAGTGGTAAGGTCAGGAATGAGTCAGTTGGCAAGTCAGGA (double strand) [43 bp, 1 BREX site]”: binds more weakly [3].
“TCAGTAGTCAAGTCAGTGGTTAGGTCAGGACAGGAGTCAG (double strand) [40 bp BREX 4T]”: binds more weakly [1].
“TCAGTAGTCAAGTCAGTGGTAAGGTCAGGACAGGAGTCAG (double strand) [40 bp BREX]”: binds more weakly [2].
